# Results deposited as PubChem BioAssay AID1159584 (Peter MacCallum Cancer Centre, 2016)
# Aim: 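Genes that CDH1-null MCF10A cells selectively depend on to survive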 (primary screen)
# System: human MCF10A breast epithelial cells, parental and CDH1-null
# Knock-down reagent: siRNA against human genes
# Detection: 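Cell viability by CellTiter-Glo ATP luminescence, each line scaled to the mean of mock wells across plates, then CDH1-null over parental ratio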
# Scale: CDH1-null / parental viability ratio: higher = CDH1-null cells survive relatively better than parental; CDH1-null viability vs mock: higher = more viable CDH1-null cells
# The whole screen tested about 18,000 reagents; shown is a part drawn at random. Further read-outs or replicates are left out here. The record does not give: the amount of reagent, the time to read-out.
target,CDH1-null / parental viability ratio,CDH1-null viability vs mock (fraction of mock)
UGT1A5,0.84,0.59
RGMB,1.1,0.92
TUFT1,1.15,0.46
ULK1,0.93,0.9
PNN,1.11,1.02
CDC42EP3,1.22,0.84
ARHGAP17,0.92,0.79
HAS2,1.11,1.02
C5orf24,1.06,0.84
LPAR6,1.29,0.9
LOC389834,1.26,0.86
CARM1,1.07,0.88
CPT2,1.01,0.84
MRPL39,1.08,0.94
OR52R1,0.88,0.56
FAM174A,1.2,0.89
GNG13,0.88,0.3
ATP7B,1.23,1.16
DHRS4L2,1.14,0.95
OR5M11,1.26,0.92
INO80C,1.3,0.6
AICDA,1.21,1.17
STEAP1,1.17,0.89
ZEB1,1,0.76
FRG2B,1.17,0.97
FUT6,1.13,1.02
ZNF688,0.69,0.55
LILRA1,1.33,0.32
UPK2,0.69,0.29
CRB3,0.78,0.28
RFC1,0.76,0.9
NXN,1.07,0.98
S100A12,1.27,0.62
LCN2,0.91,0.72
CDY2A,0.87,0.59
CHIC2,1.23,0.86
SLC24A1,1.11,1
GRM1,0.65,0.53
PSMD4,1.31,0.72
TM9SF3,0.92,0.68
CERKL,1.11,1
GPA33,0.88,0.56
EVI5L,1.02,0.82
TMA16,0.83,0.7
ANKRD42,1.07,0.8
BMP3,0.91,0.42
CDHR2,0.82,0.59
PAGR1,0.81,0.68
FAT2,0.6,0.35
COG1,1.15,1.25
ZNF428,1.21,1.02
TCF7L1,1.23,0.8
ARHGAP45,0.85,0.82
OR10A7,1.17,1.25
PCDH12,0.9,0.65
TANGO2,0.64,0.47
SERPINA13P,1.09,0.94
GOLGA8A,1.31,0.71
FOXK1,1.36,1.4
PKNOX1,0.76,0.53
EFNB3,0.82,0.55
NHERF1,1.06,0.82
C11orf68,1.62,0.55
NKIRAS2,1.12,0.9
TMCO1,1.15,1.06
C1QA,2.05,0.8
TP73,1.05,0.9
PARN,1.18,1.04
C1QTNF12,0.99,0.92
NT5C1B,1.68,0.89
ANKRD49,1.15,1
ATP8B2,0.94,0.82
WDR86,0.91,0.88
AQR,1.07,0.31
LILRB5,1.32,1.04
GJC2,1.07,0.58
TMEM220,1.08,0.7
PRAMEF1,0.76,0.6
NEDD4,1.27,0.84
PCDH11X,1,0.7
SERPINA11,0.9,0.77
LRRFIP2,0.82,0.66
FAM107A,0.73,0.51
SEC22C,0.97,0.88
TGFBRAP1,0.94,0.9
MAGEC1,1.17,0.82
RBCK1,1.01,0.97

6 successive reagents already listed:
target,CDH1-null / parental viability ratio,CDH1-null viability vs mock (fraction of mock)
CARM1,1.07,0.88
CPT2,1.01,0.84
MRPL39,1.08,0.94
OR52R1,0.88,0.56
FAM174A,1.2,0.89
GNG13,0.88,0.3
